From the supplement of paper PMC6078165
Values are relative to the signal before dosing, not to a vehicle control; the signal also falls without drug.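 Fibroblast labels denote human fibroblasts, mainly primary ones from uterus (C12385, HUF), lung (H6013), bone (Hs27A), adrenal (HADF) and skin (WS1), plus mammary HMF and breast cancer-associated Hs343T. Cancer cells are basal-like or mesenchymal-like triple-negative breast cancer lines. A hit is a response shift exceeding 3x replicate standard deviation. The tissue of the other fibroblasts is not given here.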

System: MDAMB436
Experiment: relative JC-1 red fluorescence (viability) vs pre-drug, coculture with fibroblast (fraction); higher = more viable cancer cells
Method: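 JC-1 labelled TNBC cells cocultured 1:1 (1,500 cells each) with CellTrace Violet stained primary or stromal fibroblasts in 384-well plates in FluoroBrite medium, treated with one of 42 anticancer drugs at 0.1, 1, 10 or 100 uM. JC-1 red fluorescence (mitochondrial integrity in cancer cells only) was read by plate reader every 8 h for 72 h. Values are normalised to each well's pre-drug value. The stock of one drug was tenfold lower, so its dose labels may be too high.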

CC(C)C[C@H](NC(=O)[C@@H](COC(C)(C)C)NC(=O)[C@H](Cc1ccc(O)cc1)NC(=O)[C@H](CO)NC(=O)[C@H](Cc1c[nH]c2ccccc12)NC(=O)[C@H](Cc1cnc[nH]1)NC(=O)[C@@H]1CCC(=O)N1)C(=O)N[C@@H](CCCNC(=N)N)C(=O)N1CCC[C@H]1C(=O)NNC(N)=O [Goserelin]
relative JC-1 red fluorescence
Conditions | 8 h | 16 h | 24 h | 32 h | 40 h | 48 h | 56 h | 64 h | 72 h
10 µM, coculture fibroblast: C12385 | 0.827 | 0.699 | 0.661 | 0.564 | 0.508 | 0.473 | 0.45 | 0.419 | 0.409
10 µM, coculture fibroblast: H6013 | 0.848 | 0.775 | 0.766 | 0.76 | 0.745 | 0.76 | 0.728 | 0.712 | 0.664
10 µM, coculture fibroblast: H6019 | 0.74063 | 0.688 | 0.644 | 0.561 | 0.519 | 0.498 | 0.469 | 0.444 | 0.417
10 µM, coculture fibroblast: H6076 | 0.658 | 0.601 | 0.584 | 0.544 | 0.536 | 0.509 | 0.521 | 0.5149 | 0.4979
10 µM, coculture fibroblast: H6231 | 0.736 | 0.632 | 0.583 | 0.5022 | 0.473 | 0.4365 | 0.41831 | 0.4 | 0.3864
10 µM, coculture fibroblast: HADF | 0.838 | 0.7672 | 0.749 | 0.724 | 0.7198 | 0.746 | 0.691 | 0.685 | 0.648
10 µM, coculture fibroblast: HCFa | 0.772 | 0.6876 | 0.64 | 0.589 | 0.555 | 0.559 | 0.494 | 0.485 | 0.432
10 µM, coculture fibroblast: HCPF | 0.727 | 0.602 | 0.579 | 0.511 | 0.4946 | 0.456 | 0.4388 | 0.4166 | 0.406
10 µM, coculture fibroblast: HHSteC | 0.8309 | 0.756 | 0.712 | 0.665 | 0.638 | 0.639 | 0.575 | 0.548 | 0.495
10 µM, coculture fibroblast: HMF | 0.649 | 0.583 | 0.54 | 0.5 | 0.483 | 0.452 | 0.459 | 0.445 | 0.439
10 µM, coculture fibroblast: HPFa | 0.881 | 0.784 | 0.758 | 0.709 | 0.682 | 0.688 | 0.601 | 0.562 | 0.475
10 µM, coculture fibroblast: HUF | 0.859 | 0.717 | 0.688 | 0.617 | 0.564 | 0.536 | 0.505 | 0.489 | 0.482
10 µM, coculture fibroblast: Hs5 | 0.71 | 0.668 | 0.664 | 0.611 | 0.593 | 0.55 | 0.551 | 0.505 | 0.4887
10 µM, coculture fibroblast: Hs27A | 0.8363 | 0.782 | 0.766 | 0.734 | 0.698 | 0.751 | 0.653 | 0.635 | 0.55
10 µM, coculture fibroblast: Hs343T | 0.676 | 0.626 | 0.5784 | 0.529 | 0.514 | 0.477 | 0.467 | 0.4592 | 0.455
10 µM, coculture fibroblast: WS1 | 0.797 | 0.685 | 0.664 | 0.563 | 0.514 | 0.482 | 0.449 | 0.416 | 0.406
100 µM, coculture fibroblast: C12385 | 0.841 | 0.722 | 0.729 | 0.642 | 0.586 | 0.559 | 0.535 | 0.512 | 0.498
100 µM, coculture fibroblast: H6013 | 0.874 | 0.75 | 0.741 | 0.724 | 0.707 | 0.723 | 0.686 | 0.667 | 0.625
100 µM, coculture fibroblast: H6019 | 0.7861 | 0.7128 | 0.707 | 0.64 | 0.595 | 0.578 | 0.537 | 0.503 | 0.465
100 µM, coculture fibroblast: H6076 | 0.7931 | 0.656 | 0.6375 | 0.58913 | 0.5588 | 0.526 | 0.538 | 0.533 | 0.529
100 µM, coculture fibroblast: H6231 | 0.759 | 0.661 | 0.619 | 0.5684 | 0.529 | 0.4955 | 0.4808 | 0.4636 | 0.439
100 µM, coculture fibroblast: HADF | 0.907 | 0.844 | 0.768 | 0.728 | 0.695 | 0.695 | 0.637 | 0.618 | 0.567
100 µM, coculture fibroblast: HCFa | 0.8137 | 0.721 | 0.688 | 0.6528 | 0.6124 | 0.632 | 0.562 | 0.55 | 0.497
100 µM, coculture fibroblast: HCPF | 0.84 | 0.744 | 0.6647 | 0.622 | 0.57278 | 0.5252 | 0.488 | 0.468 | 0.436
100 µM, coculture fibroblast: HHSteC | 0.884 | 0.836 | 0.818 | 0.787 | 0.776 | 0.778 | 0.716 | 0.684 | 0.627
100 µM, coculture fibroblast: HMF | 0.81 | 0.691 | 0.597 | 0.554 | 0.514 | 0.478 | 0.467 | 0.452 | 0.442
100 µM, coculture fibroblast: HPFa | 0.91 | 0.847 | 0.792 | 0.742 | 0.712 | 0.713 | 0.618 | 0.572 | 0.48
100 µM, coculture fibroblast: HUF | 0.8511 | 0.763 | 0.739 | 0.671 | 0.6164 | 0.5909 | 0.5609 | 0.538 | 0.533
100 µM, coculture fibroblast: Hs5 | 0.826 | 0.715 | 0.663 | 0.595 | 0.563 | 0.514 | 0.52 | 0.492 | 0.47
100 µM, coculture fibroblast: Hs27A | 0.852 | 0.807 | 0.784 | 0.75 | 0.728 | 0.783 | 0.679 | 0.648 | 0.565
100 µM, coculture fibroblast: Hs343T | 0.815 | 0.687 | 0.595 | 0.535 | 0.492 | 0.45 | 0.428 | 0.417 | 0.405
100 µM, coculture fibroblast: WS1 | 0.825 | 0.716 | 0.725 | 0.651 | 0.611 | 0.587 | 0.557 | 0.531 | 0.509
